The structures given here were assigned with low confidence; some may be wrong.
Experiments:
Human M3 receptor = Human M3 receptor (Homo sapiens, UniProt P20309); experiment: M3 receptor radioligand binding assay; settings: read-out: M3 Range; binding affinity class, human M3 receptor membranes, [N-methyl-3H] Scopolamine Methyl Chloride; tested form: TFA
Human β2 adrenoceptor = Human β2 adrenoceptor (Homo sapiens, UniProt P07550); experiment: β2 adrenoceptor radioligand binding assay; settings: read-out: B2 Range 8.5-9.5; binding affinity class, human β2 adrenoceptor membranes, 125-I Cyanopindolol; tested form: TFA
Experimental: β2 Adrenoceptor Radioligand Binding Assay
Human β2 adrenoceptor membranes (7.5 ug/well) from Perkin Elmer were incubated with 0.3 nM 125-I Cyanopindolol with or without test compounds, or a saturating concentration of s-propranolol (2 μM) for the determination of non-specific binding. The assay was carried out in 96-well polypropylene plates in a volume of 200 ul. The assay buffer used was 25 mM HEPES, 0.5% BSA (w/v), 1 mM EDTA, 0.02% ascorbic acid (v/v), (pH 7.4). The final assay concentration of DMSO was 0.5% (v/v). The plates were sealed and incubated for 1 h at room temperature on an orbital shaker (slow speed). Membranes were harvested onto 96-well unifilter GF/C filter plates pre-treated with 0.5% polyethyleneimine (v/v), using a filter manifold, washed six times with 200 ul of wash buffer containing 10 mM HEPES and 500 mM NaCl. The plates were dried before addition of 50 μl of microscint-0, sealed then read in a Trilux Microbeta scintillation counter. IC50 values are determined from competition curves using a non-linear curve fitting program. Ki values were calculated from IC50 values by the Cheng and Prusoff equation.

Chains of the proteins cited; added tags and fusions are not shown.
UniProt P20309, whole entry: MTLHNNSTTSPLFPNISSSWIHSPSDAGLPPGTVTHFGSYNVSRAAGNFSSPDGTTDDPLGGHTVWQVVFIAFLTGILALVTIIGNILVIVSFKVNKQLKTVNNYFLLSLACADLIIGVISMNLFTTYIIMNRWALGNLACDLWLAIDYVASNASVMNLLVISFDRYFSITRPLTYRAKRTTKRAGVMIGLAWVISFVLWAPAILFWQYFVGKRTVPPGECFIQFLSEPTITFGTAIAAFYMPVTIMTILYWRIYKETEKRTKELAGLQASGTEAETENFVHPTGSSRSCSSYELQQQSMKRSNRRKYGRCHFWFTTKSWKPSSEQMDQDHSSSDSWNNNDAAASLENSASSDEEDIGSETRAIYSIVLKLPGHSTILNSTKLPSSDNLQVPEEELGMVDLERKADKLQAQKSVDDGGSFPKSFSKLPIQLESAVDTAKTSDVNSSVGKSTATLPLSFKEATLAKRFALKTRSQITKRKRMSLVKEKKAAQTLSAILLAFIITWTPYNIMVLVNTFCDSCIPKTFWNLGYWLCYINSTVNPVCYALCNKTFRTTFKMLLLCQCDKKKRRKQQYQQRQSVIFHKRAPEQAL
UniProt P07550, whole entry: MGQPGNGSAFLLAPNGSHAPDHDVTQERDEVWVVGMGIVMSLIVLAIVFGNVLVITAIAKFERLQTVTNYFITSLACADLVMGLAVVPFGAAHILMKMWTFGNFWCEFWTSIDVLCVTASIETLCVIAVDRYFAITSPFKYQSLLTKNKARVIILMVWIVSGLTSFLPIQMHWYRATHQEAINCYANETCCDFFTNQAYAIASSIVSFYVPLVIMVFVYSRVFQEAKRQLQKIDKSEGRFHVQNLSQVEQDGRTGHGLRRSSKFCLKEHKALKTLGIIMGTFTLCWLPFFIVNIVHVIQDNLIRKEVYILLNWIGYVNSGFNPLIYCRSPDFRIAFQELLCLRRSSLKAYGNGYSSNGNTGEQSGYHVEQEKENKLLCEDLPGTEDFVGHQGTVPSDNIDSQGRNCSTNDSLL

O=C(N[C@H]1C[C@H](NC(=O)c2cncc(-c3cccc([C@](O)(C(=O)OCC4CCN(Cc5ccccc5)CC4)c4ccccc4)c3)n2)C1)c1ccc(CNC[C@H](O)c2ccc(O)c3[nH]c(=O)ccc23)cc1
IC50 (Human M3 receptor): > 3 nM | IC50 (Human β2 adrenoceptor): 0.3 to 3 nM
